In article PMC12139245:
No constants are given. Whether binding was seen depends on the method and setting. Binding seen in cells or lysates may run through a third protein. Some binding calls cover weakened binding; strength is not graded here.

Protein sequences, listed by entry. Tags and fused reporters are not part of them.
UniProt P11404: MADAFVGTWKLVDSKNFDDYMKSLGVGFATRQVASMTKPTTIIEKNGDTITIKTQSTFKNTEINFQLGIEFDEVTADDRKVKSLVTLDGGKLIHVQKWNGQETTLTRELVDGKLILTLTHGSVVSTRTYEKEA
UniProt Q99JI1: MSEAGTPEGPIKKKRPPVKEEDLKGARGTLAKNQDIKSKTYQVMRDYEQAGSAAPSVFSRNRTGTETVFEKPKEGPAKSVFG

Molecular target: FABP3-mouse-3×FLAG (fatty acid binding protein 3) (mouse) (UniProt P11404)
Experiment: co-IP; 3T3-L1 cells transfected for 48 h with the 3×FLAG vector or empty vector; lysate with 20 μl anti-FLAG magnetic beads at 4°C overnight, three to five washes with lysis buffer; Western blot

“Musculoskeletal embryonic nuclear protein 1 (MUSTN1) in 3T3-L1 cells (from UniProt Q99JI1 1-82)” was tested, and the binding was “binds”.
